Changes are numbered by the printed parent chain. Results are given in words; binding and its absence hold for the method and conditions named. Binding can be weak; no strength is given. Blank lines part the entries; values can stand above or below the binder they belong to.
Key:
[1] = target: recombinant dog MASP-3 (dog); test: cross-species binding, ranking of Fab binding
[2] = target: recombinant dog MASP-3 (dog); test: cross-species binding experiments

binding [1]: binds | binding [2]: binds
B1: 4D5 Parental Fab (Fab, V domains shown)
VH: QVQLKQSGPELVKPGASVKLSCKASGYTFTTDDINWVKQRPGQGLEWIGWIYPRDDRTKYNDKFKDKATLTVDTSSNTAYMDLHSLTSEDSAVYFCSSLEDTYWGQGTLVAVSS
VL: DIVMTQSPSSLAVSAGEKVTMTCKSSQSLLNSRTRKNYLAWYQQKPGQSPKLLIYWASTRESGVPDRFTGSGSGTDFSLTISSVQAEDLAVYYCKQSYNLYTFGGGTKLEIKR

binding [1]: binds | binding [2]: binds
B2: 13B1 Parental Fab (Fab, V domains shown)
VH: QVQLKQSGAELMKPGASVKLSCKATGYTFTGKWIEWVKQRPGHGLEWIGEILPGTGSTNYNEKFKGKATFTADSSSNTAYMQLSSLTTEDSAMYYCLRSEDVWGTGTTVTVSS
VL: B1 VL with T22S, S78T, L100I, Y101P

— patent publication US20200270125A1
